The target of experiment [1] is T1, AtGIP2, full length, yeast two-hybrid fusion (Arabidopsis thaliana) (UniProt Q9C9T3).
T1 sequence: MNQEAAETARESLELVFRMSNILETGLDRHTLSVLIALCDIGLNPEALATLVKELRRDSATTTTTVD
The experiment can be described thus: two-hybrid; yeast Y187 co-transformed with AD-AtGIP1 and BD-AtGIP1 or BD-AtGIP2; β-galactosidase filter (lift) assay.

Experiment [2] has as its target AtGIP1 (GCP3-Interacting Protein 1), full length, yeast two-hybrid fusion (Arabidopsis thaliana) (UniProt Q9M0N8). Described as above.

This passage reports binding results from PMC3842039.

Results are given in words; binding and its absence hold for the method and conditions named. Some entries that bind do so weakly or less than the wild type. Sequences can lack the tags named with a protein.

B1: AtGIP1 (GCP3-Interacting Protein 1), full length, yeast two-hybrid fusion (protein, UniProt Q9M0N8 1-71)
chain: MDEEASRTARESLELVFRMSNILDTGLDRHTLSVLIALCDLGVNPEALATVVKELRRESIPDSVTTTPSIH
As for B1, the binding result in experiment [1] and in experiment [2] was “binds” each time.
